Reference: paper PMC7819943, “Rice protein-binding microarrays: a tool to detect cis-acting elements near promoter regions in rice”
Some of the results follow.

Amino acid sequences for entries named in this document (tags omitted).
UniProt Q0JBA9, entry or part of it: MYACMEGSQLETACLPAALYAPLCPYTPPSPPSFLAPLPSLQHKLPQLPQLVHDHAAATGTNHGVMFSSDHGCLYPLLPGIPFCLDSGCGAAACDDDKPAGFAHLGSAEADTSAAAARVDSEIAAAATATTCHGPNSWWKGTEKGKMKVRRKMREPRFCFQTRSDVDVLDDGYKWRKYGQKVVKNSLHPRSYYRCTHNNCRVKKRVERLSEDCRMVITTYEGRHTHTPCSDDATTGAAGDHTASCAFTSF

Biological target: OsWRKY34 (Oryza sativa, UniProt Q0JBA9 1-250)
Test: protein-binding microarray (RPBM); PBS, 2% BSA, 51.3 ng/ul salmon testes DNA, 50 uM zinc acetate, 200 nM TF, 25 C, 1 h; high values mean tight binding
Details: protein: recombinant; tags: N-terminal polyhistidine and DsRed monomer fusion (pET32a); label: CyDye5-dUTP incorporated in the synthesized complementary strand; 3' TTTTT single-stranded linker to array surface; dsDNA, one strand shown
Procedure, shortened: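 Polyhistidine-tagged DsRed fusions of transcription factors, joined at the N-terminus, were expressed in E. coli BL21-CodonPlus and isolated on Ni–NTA. They were incubated at 200 nM for 1 h at 25 °C on a custom Agilent array, double-stranded and BSA-blocked, in PBS with 2% BSA, salmon testes DNA and 50 µM zinc acetate. The binding signal is per-feature fluorescence intensity (arbitrary units) read on an Axon 4000B scanner after washing.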

For “CCTGCCTGCCTAAGCATTGTCATAAGTGCTTCGACTCTTTCGGAGTCACCTAGTGCAG”, which binding signal is on record?
Its binding signal is 9710 fluorescence intensity (a.u.).

How did the binding signal turn out when “CAACCTACCGGTTCGTGATGGCGGGGCGGCTGGCTGACAACGGAGTCACCTAGTGCAG” was run?
Its binding signal is 8610 fluorescence intensity (a.u.).

Which binding signal does the source give for “TGCGCTCGTGAGGTGAATGCCCATACATTTGTTAGATTTTCGGAGTCACCTAGTGCAG” here?
Its binding signal is 9830 fluorescence intensity (a.u.).

How did the binding signal turn out when “ACGAGACGACCTGACCTTTCTCTTCTCCATCTCCACCCCGCGGAGTCACCTAGTGCAG” was run?
Its binding signal is 8670 fluorescence intensity (a.u.).

Which binding signal does the source give for “TGTATCATTTTTTTTCACTCCACAGGTTATTGATTCATTACGGAGTCACCTAGTGCAG” here?
The binding signal was 9510 fluorescence intensity (a.u.).

“GATTCAATCTTCGTTTAACTGTCACCAATAATGACCGACCCGGAGTCACCTAGTGCAG” was tested. Which binding signal did it give?
The binding signal was 9300 fluorescence intensity (a.u.).

How did the binding signal turn out when “CTCTTTTTTTTTCACCATGTTTGCAAGATACCAAATTTGTCGGAGTCACCTAGTGCAG” was run?
The binding signal was 9310 fluorescence intensity (a.u.).

For “TCTTCTTCTTCCGTCGCTAATTAGATCGTCACTACCTCTTCGGAGTCACCTAGTGCAG”, which binding signal is on record?
The binding signal was 11500 fluorescence intensity (a.u.).

Which binding signal does the source give for “GTACCTGCTCTTAGACGGTTGACCTTTTTCTTGTTTGGGACGGAGTCACCTAGTGCAG” here?
Its binding signal is 8640 fluorescence intensity (a.u.).

For “TTTACTCCCTTAATCTCGTTGCAAAATTCAAGCAGCTGTCCGGAGTCACCTAGTGCAG”, which binding signal is on record?
The binding signal was 8230 fluorescence intensity (a.u.).

How did the binding signal turn out when “TATGTCGCCGCCCTACGTCAGCGAAGAGTGGGGTGGGTCCCGGAGTCACCTAGTGCAG” was run?
The binding signal was 9150 fluorescence intensity (a.u.).

With “CACACACTTTCTACTCTCTCTCTCTCTCACTTCCTCTCATCGGAGTCACCTAGTGCAG” as the sequence, how does the binding signal read?
The binding signal was 8300 fluorescence intensity (a.u.).

Which binding signal does the source give for “ACCGCGCACGCAACCGACTCAGCTCCTATATTTTGTATACCGGAGTCACCTAGTGCAG” here?
The binding signal was 11400 fluorescence intensity (a.u.).

How did the binding signal turn out when “TCAAACGGCCATTCCTGTGTTTTTCCTGCATTTTACAATCCGGAGTCACCTAGTGCAG” was run?
Its binding signal is 8750 fluorescence intensity (a.u.).

How did the binding signal turn out when “CGTCCGACGCGGAGTCTTGTGGGCTTTCTGGGTTAGGGACCGGAGTCACCTAGTGCAG” was run?
Its binding signal is 10500 fluorescence intensity (a.u.).

How did the binding signal turn out when “GACGCTTCCGTGGCCATCAGCTTGTACCTGTTTCCTTCATCGGAGTCACCTAGTGCAG” was run?
Its binding signal is 14100 fluorescence intensity (a.u.).

With “ATCCCTTTCTCTGCAACCGCACATCCTGTCTGCTTGCTTGCGGAGTCACCTAGTGCAG” as the sequence, how does the binding signal read?
The binding signal was 10600 fluorescence intensity (a.u.).

Which binding signal does the source give for “GACACGGTCGCTTGCCGTGATCGCCATCCCTTGTCTACACCGGAGTCACCTAGTGCAG” here?
The binding signal was 8610 fluorescence intensity (a.u.).

For “TTTCCAATCAGCATTGTCGTTTTTCTATTAACATCAGTATCGGAGTCACCTAGTGCAG”, which binding signal is on record?
Its binding signal is 8110 fluorescence intensity (a.u.).

“GTTTTGGAGCAGAAGCCCGTTTTCTCCGCCATCTTGCCATCGGAGTCACCTAGTGCAG” was tested. Which binding signal did it give?
Its binding signal is 8400 fluorescence intensity (a.u.).

For “ACAACGCCGCCGCCTCATCCGCTCTGCTTCTGCTCGCATGCGGAGTCACCTAGTGCAG”, which binding signal is on record?
Its binding signal is 8410 fluorescence intensity (a.u.).

For “CTATTTTTAGTTGTGCTTTGCACTAGATTCATTCCCGTCTCGGAGTCACCTAGTGCAG”, which binding signal is on record?
The binding signal was 8500 fluorescence intensity (a.u.).

Which binding signal does the source give for “ATTCCTATCCGTCTCCGTTGACAGTCACCCCAATCATCACCGGAGTCACCTAGTGCAG” here?
The binding signal was 8310 fluorescence intensity (a.u.).

How did the binding signal turn out when “AGTTAGCATTGTGATGTGGCACATCTAATCTCATCTCTCTCGGAGTCACCTAGTGCAG” was run?
Its binding signal is 8360 fluorescence intensity (a.u.).

Which binding signal does the source give for “GCCCTCGCCTCGCCTCGCCTCGCCGAAACCCTAACCCTAGCGGAGTCACCTAGTGCAG” here?
Its binding signal is 8240 fluorescence intensity (a.u.).

How did the binding signal turn out when “ACCGACCCTTCCGACCGGTTCTTCCGGTGCCACGCACTCACGGAGTCACCTAGTGCAG” was run?
The binding signal was 8500 fluorescence intensity (a.u.).

How did the binding signal turn out when “ACACACAAACTTTCAACTTTTCTGTCACATCGTTCTAATTCGGAGTCACCTAGTGCAG” was run?
Its binding signal is 11100 fluorescence intensity (a.u.).

“AACTCGAGGACTTTCCATGGCACCGCGGTCTCCATCGTCTCGGAGTCACCTAGTGCAG” was tested. Which binding signal did it give?
The binding signal was 10800 fluorescence intensity (a.u.).

For “TTTCGTGTCCAACTTTGACTGTCCGTCTTATATAAATTTTCGGAGTCACCTAGTGCAG”, which binding signal is on record?
The binding signal was 11500 fluorescence intensity (a.u.).

“GTTCTTGTCAGTTACTCCACTATCTTGCAATTAAGTTGCACGGAGTCACCTAGTGCAG” was tested. Which binding signal did it give?
Its binding signal is 8180 fluorescence intensity (a.u.).

For “GGGTGGGGCCAGTGAGTCAGTGGGCGGGGCACAATGGGACCGGAGTCACCTAGTGCAG”, which binding signal is on record?
The binding signal was 11900 fluorescence intensity (a.u.).

Which binding signal does the source give for “TATGCTCAATTTGGCCGTTACTGAGGGGCCTTTCTACAAACGGAGTCACCTAGTGCAG” here?
The binding signal was 8650 fluorescence intensity (a.u.).

“TCCATATTGGTCATCGTCAGCCGCTCAGGGTCTTCTTCCTCGGAGTCACCTAGTGCAG” was tested. Which binding signal did it give?
Its binding signal is 9320 fluorescence intensity (a.u.).

Which binding signal does the source give for “CCACACAACGTTGACTGGGTCATTACATCCTTTTCCGTAGCGGAGTCACCTAGTGCAG” here?
The binding signal was 8650 fluorescence intensity (a.u.).

“GCCTCTACGTGGCAGGCTTGCAGTAGGCCATTTACCGTCCCGGAGTCACCTAGTGCAG” was tested. Which binding signal did it give?
Its binding signal is 8230 fluorescence intensity (a.u.).

How did the binding signal turn out when “CTATCCTCGTCCACCTTTCAGCCCGGCCCATTTATATCCACGGAGTCACCTAGTGCAG” was run?
The binding signal was 9510 fluorescence intensity (a.u.).

“CTCTTGGCATTTACCCACCAGACGATCACATCACCCGCTCCGGAGTCACCTAGTGCAG” was tested. Which binding signal did it give?
The binding signal was 9020 fluorescence intensity (a.u.).

“CCAGTCAACCCAAGCACCCAGCCGTCTCGCCTCCTATTCTCGGAGTCACCTAGTGCAG” was tested. Which binding signal did it give?
Its binding signal is 10800 fluorescence intensity (a.u.).

Which binding signal does the source give for “CTAGGTACTAGTTAGCATGTATTGACTCCCGCTGATTTTTCGGAGTCACCTAGTGCAG” here?
The binding signal was 10200 fluorescence intensity (a.u.).

“GGTTGTATCATTTGTTTCTTCTATATGCTCAACAGCTCAACGGAGTCACCTAGTGCAG” was tested. Which binding signal did it give?
Its binding signal is 8360 fluorescence intensity (a.u.).

With “ACATTTGACCGTTCGTCTTATTTGAAAAACAATTATGATTCGGAGTCACCTAGTGCAG” as the sequence, how does the binding signal read?
Its binding signal is 8890 fluorescence intensity (a.u.).

How did the binding signal turn out when “TTAGCCGTCGTAATAGTCATTTTCTTTTTCTTGGTTTTTTCGGAGTCACCTAGTGCAG” was run?
The binding signal was 12400 fluorescence intensity (a.u.).

For “AACAGACTTGGTAATTTTGCCCCATATTTCGCATACAATACGGAGTCACCTAGTGCAG”, which binding signal is on record?
The binding signal was 8390 fluorescence intensity (a.u.).

For “TTGTATTCGGGTCGTCAACGTTTCTCTCAAATCATAGTTACGGAGTCACCTAGTGCAG”, which binding signal is on record?
Its binding signal is 14800 fluorescence intensity (a.u.).

“CCAATGCCAATACCAATATGCTTCTAGAACCTGTACAGCTCGGAGTCACCTAGTGCAG” was tested. Which binding signal did it give?
Its binding signal is 8870 fluorescence intensity (a.u.).

How did the binding signal turn out when “CTTTGCGCGTCACCTCGCCTCCACGACCCTCGAGACAAAACGGAGTCACCTAGTGCAG” was run?
Its binding signal is 9380 fluorescence intensity (a.u.).

For “CTACTATTTCTTCATGTTACATAATTCTCCTTGTTTAAGTCGGAGTCACCTAGTGCAG”, which binding signal is on record?
The binding signal was 9260 fluorescence intensity (a.u.).

How did the binding signal turn out when “CCCCACCCAGATCTCGCCGCCCGCCCGCCCGCCCGCCATGCGGAGTCACCTAGTGCAG” was run?
The binding signal was 8630 fluorescence intensity (a.u.).

For “ATGGAGGGAGTAGTTATTATTTTGGGATGTAGGAGGTAGTCGGAGTCACCTAGTGCAG”, which binding signal is on record?
Its binding signal is 8700 fluorescence intensity (a.u.).

For “ACACCTCTCTCTCTCTCTCTCTCTCTCTCTCTCTCTCTCTCGGAGTCACCTAGTGCAG”, which binding signal is on record?
The binding signal was 11300 fluorescence intensity (a.u.).

With “AATTTATGCGTGACTTATCTTTTTAATTTTTTTCATAATTCGGAGTCACCTAGTGCAG” as the sequence, how does the binding signal read?
Its binding signal is 8110 fluorescence intensity (a.u.).

For “CCATCCTTATCTATATATGTATGCTATTGTTGCTGTTATGCGGAGTCACCTAGTGCAG”, which binding signal is on record?
The binding signal was 9070 fluorescence intensity (a.u.).

For “GGGATGTCTTGGCTTTTTTTTTTTCTTCACCGAGCAATCGCGGAGTCACCTAGTGCAG”, which binding signal is on record?
The binding signal was 13400 fluorescence intensity (a.u.).

“GAGGTATATGTCCATTTTGTTTTTGTTAGAGTTTGTTTTTCGGAGTCACCTAGTGCAG” was tested. Which binding signal did it give?
The binding signal was 10700 fluorescence intensity (a.u.).
